Experiment: Ion selective electrode with CB*[5] membrane, fixed solution method (Example 10)
Details: pH 4 Mg(OAc)2-HCl buffer

`O=C1N2CN3C(=O)N4CN5C(=O)N6CN7C(=O)N8CN9C(=O)N%10CN1C1%11CCCCC21N1CN2C(=O)N(CN%12C(=O)N(CN%13C(=O)N(CN%14C(=O)N(CN%11C1=O)C%101CCCCC9%141)C81CCCCC7%131)C61CCCCC5%121)C41CCCCC321` (stereo not shown) [CB*[5]] showed a Detection limit (ion analyzed K^+) of 6e-05 mol/L, a Detection limit (ion analyzed NH4^+) of 0.0004 mol/L and a Detection limit (ion analyzed Na^+) of 0.00053 mol/L. It also gave a Detection limit (ion analyzed Pb^2+) of 2.5e-07 mol/L.
